Assay results published in US20190136321A1, “USE OF TRANSLATIONAL PROFILING TO IDENTIFY TARGET MOLECULES FOR THERAPEUTIC TREATMENT” (The Regents of The University of California, priority 2013, published 2019).

Legend:
Format in all cases: cell-based, human
4EBP1, p70S6K1/2 and AKT = experiment: Western blot of downstream mTOR effectors in PC3 cells; conditions: 3 hours, rapamycin 50 nM, PP242 2.5 μM
SW620 cells [1] = experiment: Ribosome profiling of SW620 cells (transcription, translational rate, translational efficiency); conditions: 2.5 μM PP242, 3 hrs
Experimental: SW620 human colon cancer cells were cultured in DMEM media supplemented with penicillin G (100 U/ml), streptomycin (100 μg/ml), and 10% FBS in a humidified atmosphere of 5% CO2 maintained at 37° C.
(§1) SW620 cells (ATCC, passage 12) were seeded at about 75% confluence 24 hrs prior to drug treatment. […] About 6×10^6 cells/10 cm plate and about 1×10^6 cells/well of a 6-well plate were harvested for ribosome profiling and Western blot analysis, respectively, following drug treatment.

SW620 cells [2] = experiment: Western blot of phosphorylation of protein translation components in SW620 cells; conditions: 2.5 μM PP242
Experimental: as §1
Cells were washed with PBS and lysed in 1× cell lysis buffer (Cell Signaling) for 15 min at 4° C. Lysates were sonicated briefly, clarified by centrifugation for 15 min at 14, 000 rpm, and supernatants were then collected. Protein concentration in the soluble fraction was determined by BCA protein assay (Thermo Scientific). A 4-20% Bis-Tris gradient gel (Invitrogen) was used to resolve 20 μg of protein and transferred to nitrocellulose membrane. The resulting membranes were blocked for 1 hr at room temperature with Odyssey blocking solution (LI-COR) and then incubated with primary antibodies at 4° C. overnight. The following day, the blots were washed 3 times, 10 min each in TBST, and incubated with IR-conjugated goat anti-rabbit IgG secondary antibody (IRDye 800 CW at 1:20,000; LI-COR) for 1 hour at room temperature. The blots were then washed, scanned, and specific proteins were detected using the LI-COR Odyssey infrared imager. […]

CC(C)n1nc(-c2cc3cc(O)ccc3[nH]2)c2c(N)ncnc21 [PP242]
activity of the three primary downstream mTOR effectors 4EBP1, p70S6K1/2 and AKT (4EBP1, p70S6K1/2 and AKT): significantly inhibited | translational efficiency of genes sensitive to 2.5 μM PP242 in PC3 cells (SW620 cells [1]): also sensitive | inhibition of phosphorylation (SW620 cells [2]): significant inhibition
